Results deposited as PubChem BioAssay AID1671195 (Yale University, 2021)
Shown is one part, drawn at random, of about 22,000 deposited reagents. About 1,510 of all reagents (6.9%) count as active. 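Active includes knockdowns raising or lowering LDL uptake; positive z-scores mean more uptake, negative mean less.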

Assay: 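Regulators of LDL receptor activity judged by labelled LDL uptake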 (primary screen)
Cell system: human Huh7 hepatoma cells
Reagents: siRNA pool against human genes, 18 nM
Time to read-out: about 2 to 2.5 days of knockdown, then 8 h LDL uptake
Conditions: DiI-labelled LDL at 30 µg/ml for 8 h, in lipoprotein-deficient serum medium
Measurement: 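Per-cell DiI-LDL intensity by automated imaging; well means scaled to the plate median and given as a robust z-score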
Direction: robust z-score: higher = more LDL uptake after knockdown
Call rule: 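Active when two or more replicates show a robust z-score above 2 or below -2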

target gene | robust z-score, replicate 1 | robust z-score, replicate 2 | robust z-score, replicate 3 | Outcome
LOC442503 (retired record) | -1.26 | -1.34 | -4.97 | inactive
C12orf71 | -0.102 | -0.249 | 0.0558 | inactive
DHRS3 | 1.25 | 0.874 | 0.755 | inactive
LRFN3 | -0.95 | -0.9 | -0.94 | inactive
GIP | -0.836 | -0.293 | -0.00356 | inactive
LOC440784 (retired record) | 0.424 | 0.387 | 0.952 | inactive
ZBED4 | 0.964 | 3.29 | 3.25 | active
NAALAD2 | 1.24 | 1.79 | 1.71 | inactive
ADAM19 | 1.38 | 0.594 | 1.58 | inactive
STK26 | 0.813 | 0.724 | 0.00184 | inactive
KLHL40 | 0.65 | 2.23 | 1.92 | active
ZNF227 | 1.2 | 1.83 | 1.61 | inactive
GDPGP1 | -1.6 | -1.73 | -1.39 | inactive
PMEL | -2.38 | -0.925 | -0.0822 | inactive
ARL4C | -0.496 | -0.855 | -0.767 | inactive
ALG11 | 0.873 | 0.651 | 0.494 | inactive
SCAF4 | 1.22 | 0.865 | 0.661 | inactive
TMEM80 | -1.42 | -1.53 | -1.54 | inactive
MTRES1 | 2.03 | 0.578 | -1.98 | inactive
OR1Q1 | 0.562 | 0.793 | 0.982 | inactive
SCYL3 | 0.71 | 0.801 | 0.756 | inactive
LRRC1 | 2.23 | 4.08 | -0.0675 | active
NRP1 | -0.00387 | 0.0317 | 0.137 | inactive
PYROXD1 | 0.7 | 0.254 | 0.324 | inactive
GJC3 | -0.0237 | 0.203 | 0.419 | inactive
MPND | 4.92 | 3.84 | 4.25 | active
GATC | -0.928 | -1 | -1.01 | inactive
GEMIN7 | -0.351 | -0.535 | -0.669 | inactive

Hits, of those listed so far:
target gene | robust z-score, replicate 1 | robust z-score, replicate 2 | robust z-score, replicate 3 | Outcome
ZBED4 | 0.964 | 3.29 | 3.25 | active
KLHL40 | 0.65 | 2.23 | 1.92 | active
LRRC1 | 2.23 | 4.08 | -0.0675 | active
MPND | 4.92 | 3.84 | 4.25 | active

The list goes on:
target gene | robust z-score, replicate 1 | robust z-score, replicate 2 | robust z-score, replicate 3 | Outcome
PRSS16 | 0.307 | 0.456 | 0.28 | inactive
MGAT4C | 0.321 | 0.0533 | 1.02 | inactive
SOWAHA | -0.31 | 1.87 | 1.31 | inactive
TRMT6 | -1.82 | -0.987 | -1.42 | inactive
ZNF823 | 0.721 | 0.775 | 0.919 | inactive
GSX1 | 0.0395 | 0.382 | -0.377 | inactive
COL6A4P1 | 0.148 | 0.472 | 0.739 | inactive
PRKX | -1.2 | -1.19 | 0.119 | inactive
SACK1C | 0.629 | 0.597 | -0.477 | inactive
RPS27P4 | -1.25 | -1.04 | -0.715 | inactive
PHOSPHO1 | -0.531 | -0.398 | 0.847 | inactive
LOC442371 (retired record) | 0.359 | 1.2 | 0.451 | inactive
SNCB | -0.396 | 0.684 | -0.167 | inactive
TBC1D22A | -0.0918 | 0.475 | 0.149 | inactive
COPG1 | 0.546 | -0.284 | -0.343 | inactive
CFAP36 | 0.536 | 1.34 | 1.02 | inactive
LOC401823 (retired record) | 2.12 | 1.87 | 3.37 | active
HOXA2 | -0.431 | -0.279 | -0.517 | inactive
COLEC12 | 1.94 | 2.57 | 2.7 | active
NYX | -0.476 | -0.902 | -0.618 | inactive
ZNF197 | -0.369 | -0.0882 | 0.00783 | inactive
TNMD | -0.219 | -0.283 | -0.329 | inactive
MPC2 | 1.27 | 1.86 | 1.15 | inactive
H3C4 | 1.46 | -0.291 | 0.145 | inactive
NME1 | 4.29 | 3.64 | 4.1 | active
TMEM183AP3 | -1.51 | -1.37 | -1.69 | inactive
LOC283034 (retired record) | 1.53 | 1.44 | 1.6 | inactive
LINC02393 | -0.729 | -1.33 | -1.54 | inactive
PRR4 | -0.899 | 0.403 | -1.12 | inactive
MOB2 | 0.083 | 0.864 | 0.591 | inactive
DIP2C | 0.493 | 1.5 | -0.427 | inactive
FBXO36 | -0.34 | 0.123 | 0.322 | inactive
METTL2A | -0.405 | -0.664 | -0.557 | inactive
YWHAB | -0.964 | -1.35 | -1.06 | inactive
PPM1E | 1.47 | 1.48 | 1.23 | inactive
FIBP | 1.56 | 0.565 | 2.36 | inactive
MPHOSPH8 | 0.528 | 1.6 | 0.274 | inactive
LRP12 | 1.02 | 0.482 | 0.794 | inactive
CLCN5 | 1.63 | 2.66 | 2.12 | active
ATG16L1 | -1.24 | -1.17 | 0.455 | inactive
